Data taken from publication PMC7498313.
Construct, isoform or probe ends are uncertain for at least one entry. For some assays here: The comparison behind a weaker result is the experiment's own reference, which may not be listed here. For some assays here: At least one verdict was read from the data and is not stated in words by the source.

Chains of the proteins cited; added tags and fusions are not shown. Residues count along the entry.
UniProt F0NHH1, whole entry R44I/R83T: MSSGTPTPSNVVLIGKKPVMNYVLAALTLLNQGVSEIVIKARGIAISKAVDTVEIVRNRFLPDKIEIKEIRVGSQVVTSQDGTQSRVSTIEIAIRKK
UniProt F0NHH1, whole entry K16N/R44I/R83T: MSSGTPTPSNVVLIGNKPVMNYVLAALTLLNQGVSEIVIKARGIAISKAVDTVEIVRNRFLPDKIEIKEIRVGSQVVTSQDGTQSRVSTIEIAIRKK
UniProt F0NHH1, whole entry K17A: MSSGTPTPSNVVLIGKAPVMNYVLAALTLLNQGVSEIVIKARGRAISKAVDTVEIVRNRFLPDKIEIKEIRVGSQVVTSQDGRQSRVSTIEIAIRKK
UniProt F0NHH1, whole entry K16N/R83T: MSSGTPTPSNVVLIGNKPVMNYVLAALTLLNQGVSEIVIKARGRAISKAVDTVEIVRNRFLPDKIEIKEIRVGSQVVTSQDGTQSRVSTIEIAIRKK
UniProt F0NHH1, whole entry K16A: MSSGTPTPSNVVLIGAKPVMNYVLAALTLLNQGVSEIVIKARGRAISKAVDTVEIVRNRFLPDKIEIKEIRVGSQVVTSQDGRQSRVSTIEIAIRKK
UniProt F0NHH1, whole entry K16N/R44I: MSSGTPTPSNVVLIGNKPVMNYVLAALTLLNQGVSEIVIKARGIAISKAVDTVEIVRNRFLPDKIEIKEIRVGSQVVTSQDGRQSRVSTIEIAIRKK
UniProt F0NHH1, 13-97, stated change not applied: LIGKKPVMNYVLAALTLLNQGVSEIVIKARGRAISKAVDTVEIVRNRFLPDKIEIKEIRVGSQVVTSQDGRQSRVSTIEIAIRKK
UniProt F0NHH1, whole entry K17R: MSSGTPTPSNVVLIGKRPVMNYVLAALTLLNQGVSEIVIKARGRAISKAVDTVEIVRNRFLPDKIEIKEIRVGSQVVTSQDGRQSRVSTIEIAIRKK
UniProt F0NHH1, whole entry M20E/L24E/L27E/F60E: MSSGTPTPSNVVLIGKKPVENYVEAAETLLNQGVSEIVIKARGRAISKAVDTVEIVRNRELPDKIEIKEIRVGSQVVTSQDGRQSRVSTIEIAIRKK

Legend:
Assay in all cases: EMSA
[1] = target: Sis10b R44I/R83T (Sulfolobus islandicus REY15A) (UniProt F0NHH1); details: EMSA: 20 mM HEPES-NaOH pH 7.0, 1 mM DTT, 100 ug/ml BSA, 6% glycerol, 30 min at 25, 37 or 55°C, gel in 0.5x TBE at the same temperature, recombinant protein
[2] = target: Sis10b K16N/R44I/R83T (Sulfolobus islandicus REY15A) (UniProt F0NHH1); details: 55°C, hardly able to bind even at 10 uM; EMSA: 20 mM HEPES-NaOH pH 7.0, 1 mM DTT, 100 ug/ml BSA, 6% glycerol, 30 min at 25, 37 or 55°C; gel in 0.5x TBE at the same temperature; recombinant protein; label: 5' 32P on top strand
[3] = target: Sis10b K17A (Sulfolobus islandicus REY15A) (UniProt F0NHH1); details: 55°C; EMSA: 20 mM HEPES-NaOH pH 7.0, 1 mM DTT, 100 ug/ml BSA, 6% glycerol, 30 min at 25, 37 or 55°C; gel in 0.5x TBE at the same temperature; recombinant protein; label: 5' 32P on top strand
[4] = target: Sis10b K16N/R83T (Sulfolobus islandicus REY15A) (UniProt F0NHH1); details: EMSA: 20 mM HEPES-NaOH pH 7.0, 1 mM DTT, 100 ug/ml BSA, 6% glycerol, 30 min at 25, 37 or 55°C, gel in 0.5x TBE at the same temperature, recombinant protein
[5] = target: Sis10b K16A (Sulfolobus islandicus REY15A) (UniProt F0NHH1); details: 55°C, EMSA: 20 mM HEPES-NaOH pH 7.0, 1 mM DTT, 100 ug/ml BSA, 6% glycerol, 30 min at 25, 37 or 55°C, gel in 0.5x TBE at the same temperature, recombinant protein
[6] = target: Sis10b K16N/R44I (Sulfolobus islandicus REY15A) (UniProt F0NHH1); details: EMSA: 20 mM HEPES-NaOH pH 7.0, 1 mM DTT, 100 ug/ml BSA, 6% glycerol, 30 min at 25, 37 or 55°C, gel in 0.5x TBE at the same temperature, recombinant protein
[7] = target: Sis10b ΔN12 del1-12 (Sulfolobus islandicus REY15A) (UniProt F0NHH1); details: 55°C; EMSA: 20 mM HEPES-NaOH pH 7.0, 1 mM DTT, 100 ug/ml BSA, 6% glycerol, 30 min at 25, 37 or 55°C; gel in 0.5x TBE at the same temperature; recombinant protein; residues 13-97; label: 5' 32P
[8] = target: Sis10b K17R (Sulfolobus islandicus REY15A) (UniProt F0NHH1); details: EMSA: 20 mM HEPES-NaOH pH 7.0, 1 mM DTT, 100 ug/ml BSA, 6% glycerol, 30 min at 25, 37 or 55°C, gel in 0.5x TBE at the same temperature, recombinant protein
[9] = target: Sis10b M20E/L24E/L27E/F60E (Sulfolobus islandicus REY15A) (UniProt F0NHH1); details: 55°C; EMSA: 20 mM HEPES-NaOH pH 7.0, 1 mM DTT, 100 ug/ml BSA, 6% glycerol, 30 min at 25, 37 or 55°C; gel in 0.5x TBE at the same temperature; recombinant protein; label: 5' 32P
[10] = 55°C, range given for the three double mutants, label: 5' 32P on top strand
[11] = 25°C, label: 5' 32P on top strand

In the case of “UGACUUCCGCGCGUGAGCUCGAUUCCACAUACCCUAAAUCGCUC / GAGCGAUUUAGGGUAUGUGGAAUCGAGCUCACGCGCGGAAGUCA [44-bp dsRNA]”, the binding result [1, 10] is reported as “binds more weakly”, the Kd [2] is reported as over 10000 nM and the Kd [3] is reported as 47.3 nM. For the same sequence, the binding result [4, 10] was “binds more weakly”, the Kd ([5]; label: 5' 32P on top strand) was 59.3 nM and the binding result [6, 10] was “binds more weakly”.
“UGACUUCCGCGCGUGAGCUCGAUUCCACAUACCCUAAAUCGCUC [44-nt ssRNA (t)]”: binds more weakly ([1]; 55°C, label: 5' 32P); binds [7]; binds more weakly ([4]; 55°C, label: 5' 32P). “UGACUUCCGCGCGUGAGCUCGAUUCCACAUACCCUAAAUCGCUC [44-nt ssRNA (t)]”: binds ([8]; 55°C, label: 5' 32P); binds [9]; binds ([5]; label: 5' 32P). “UGACUUCCGCGCGUGAGCUCGAUUCCACAUACCCUAAAUCGCUC [44-nt ssRNA (t)]”: binds more weakly ([6]; 55°C, label: 5' 32P).
“GGUAAGAGCACCCGACUGCUCUUCC / GGAAGAGCAGUCGGGUGCUCUUACC [25-bp dsRNA]”: binds more weakly [1, 11]; binds more weakly [4, 11]; binds [8, 11]. “GGUAAGAGCACCCGACUGCUCUUCC / GGAAGAGCAGUCGGGUGCUCUUACC [25-bp dsRNA]”: binds more weakly [6, 11].
